Literature values, collected in patent publication US9867884B2, “Vascular delivery systems” (Ben-Gurion University of the Negev Research and Development …, priority 2008, dated 2018).
At least one structure is not confirmed: it was looked up by name or label, or the drawing left a doubt. Ends that are not written are not given here.

Biological target: T1, E-selectin (Homo sapiens, UniProt P16581)
T1 sequence (P16581 22-556 limits assumed): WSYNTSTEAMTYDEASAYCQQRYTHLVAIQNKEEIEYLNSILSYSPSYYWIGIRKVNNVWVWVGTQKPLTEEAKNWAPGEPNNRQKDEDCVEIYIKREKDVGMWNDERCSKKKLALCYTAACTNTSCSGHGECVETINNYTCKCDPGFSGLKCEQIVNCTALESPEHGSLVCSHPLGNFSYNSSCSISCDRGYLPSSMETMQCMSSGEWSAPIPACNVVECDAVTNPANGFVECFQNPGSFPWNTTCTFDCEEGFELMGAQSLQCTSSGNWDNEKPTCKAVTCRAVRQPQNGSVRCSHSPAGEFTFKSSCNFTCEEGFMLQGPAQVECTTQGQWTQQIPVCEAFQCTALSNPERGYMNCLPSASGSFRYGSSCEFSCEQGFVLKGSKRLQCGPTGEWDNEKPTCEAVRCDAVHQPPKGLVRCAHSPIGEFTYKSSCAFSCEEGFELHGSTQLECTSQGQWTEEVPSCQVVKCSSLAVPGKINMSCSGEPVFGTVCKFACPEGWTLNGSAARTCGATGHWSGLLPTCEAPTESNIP
Conditions: measured values of Esbp monomer stated to be similar; read-out: binding affinity, values as published in the literature; cited from earlier work

Q: Which IC50 does the source give for DITWDQLWDLMK [Esbp] here?
A: 1 to 10 µM
